{"source": "patent US9481610B2", "about": "“Use of a fertilizer containing L-amino acid for improving root growth and growth of mycorrhiza” (SweTree Technologies AB, priority 2007, dated 2016)", "test_system": "Arabidopsis thaliana", "test": "Allocation of glutamine-N and nitrate-N (15N labelling) in Arabidopsis", "type": "in vivo", "details": "Arabidopsis thaliana supplied with mixture of L-Glutamine and nitrate, 3 mM N, 21 days; FIG. 2"}
{"compound": "NC(=O)CC[C@H](N)C(=O)O", "note": "[L-Glutamine]", "values": [{"measurement": "root nitrogen derived from uptake of the nitrogen form", "value": "~75", "unit": "%"}, {"measurement": "whole plant nitrogen derived from uptake of the nitrogen form", "value": "~50", "unit": "%"}]}
{"compound": "O=[N+]([O-])O", "note": "[nitrate]", "values": [{"measurement": "root nitrogen derived from uptake of the nitrogen form", "value": "~25", "unit": "%"}, {"measurement": "whole plant nitrogen derived from uptake of the nitrogen form", "value": "~45", "unit": "%"}]}
